# Library screen at single concentrations

Sequences of proteins named here, by UniProt entry; tags and fusion partners are left off. Residues count along the entry.
UniProt P9WPC5, whole entry: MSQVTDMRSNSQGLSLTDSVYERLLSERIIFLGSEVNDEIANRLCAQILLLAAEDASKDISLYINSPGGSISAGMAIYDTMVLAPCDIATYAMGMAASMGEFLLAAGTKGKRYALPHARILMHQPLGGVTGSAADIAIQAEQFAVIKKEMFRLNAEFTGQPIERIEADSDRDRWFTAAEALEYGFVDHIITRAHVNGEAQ
UniProt P9WPC3, whole entry partner: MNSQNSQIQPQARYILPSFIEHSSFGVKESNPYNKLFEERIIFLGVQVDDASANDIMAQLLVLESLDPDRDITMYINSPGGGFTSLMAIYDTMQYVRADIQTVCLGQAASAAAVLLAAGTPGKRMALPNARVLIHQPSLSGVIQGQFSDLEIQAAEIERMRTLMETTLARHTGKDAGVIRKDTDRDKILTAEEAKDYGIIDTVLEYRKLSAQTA
UniProt I6X8D2, whole entry: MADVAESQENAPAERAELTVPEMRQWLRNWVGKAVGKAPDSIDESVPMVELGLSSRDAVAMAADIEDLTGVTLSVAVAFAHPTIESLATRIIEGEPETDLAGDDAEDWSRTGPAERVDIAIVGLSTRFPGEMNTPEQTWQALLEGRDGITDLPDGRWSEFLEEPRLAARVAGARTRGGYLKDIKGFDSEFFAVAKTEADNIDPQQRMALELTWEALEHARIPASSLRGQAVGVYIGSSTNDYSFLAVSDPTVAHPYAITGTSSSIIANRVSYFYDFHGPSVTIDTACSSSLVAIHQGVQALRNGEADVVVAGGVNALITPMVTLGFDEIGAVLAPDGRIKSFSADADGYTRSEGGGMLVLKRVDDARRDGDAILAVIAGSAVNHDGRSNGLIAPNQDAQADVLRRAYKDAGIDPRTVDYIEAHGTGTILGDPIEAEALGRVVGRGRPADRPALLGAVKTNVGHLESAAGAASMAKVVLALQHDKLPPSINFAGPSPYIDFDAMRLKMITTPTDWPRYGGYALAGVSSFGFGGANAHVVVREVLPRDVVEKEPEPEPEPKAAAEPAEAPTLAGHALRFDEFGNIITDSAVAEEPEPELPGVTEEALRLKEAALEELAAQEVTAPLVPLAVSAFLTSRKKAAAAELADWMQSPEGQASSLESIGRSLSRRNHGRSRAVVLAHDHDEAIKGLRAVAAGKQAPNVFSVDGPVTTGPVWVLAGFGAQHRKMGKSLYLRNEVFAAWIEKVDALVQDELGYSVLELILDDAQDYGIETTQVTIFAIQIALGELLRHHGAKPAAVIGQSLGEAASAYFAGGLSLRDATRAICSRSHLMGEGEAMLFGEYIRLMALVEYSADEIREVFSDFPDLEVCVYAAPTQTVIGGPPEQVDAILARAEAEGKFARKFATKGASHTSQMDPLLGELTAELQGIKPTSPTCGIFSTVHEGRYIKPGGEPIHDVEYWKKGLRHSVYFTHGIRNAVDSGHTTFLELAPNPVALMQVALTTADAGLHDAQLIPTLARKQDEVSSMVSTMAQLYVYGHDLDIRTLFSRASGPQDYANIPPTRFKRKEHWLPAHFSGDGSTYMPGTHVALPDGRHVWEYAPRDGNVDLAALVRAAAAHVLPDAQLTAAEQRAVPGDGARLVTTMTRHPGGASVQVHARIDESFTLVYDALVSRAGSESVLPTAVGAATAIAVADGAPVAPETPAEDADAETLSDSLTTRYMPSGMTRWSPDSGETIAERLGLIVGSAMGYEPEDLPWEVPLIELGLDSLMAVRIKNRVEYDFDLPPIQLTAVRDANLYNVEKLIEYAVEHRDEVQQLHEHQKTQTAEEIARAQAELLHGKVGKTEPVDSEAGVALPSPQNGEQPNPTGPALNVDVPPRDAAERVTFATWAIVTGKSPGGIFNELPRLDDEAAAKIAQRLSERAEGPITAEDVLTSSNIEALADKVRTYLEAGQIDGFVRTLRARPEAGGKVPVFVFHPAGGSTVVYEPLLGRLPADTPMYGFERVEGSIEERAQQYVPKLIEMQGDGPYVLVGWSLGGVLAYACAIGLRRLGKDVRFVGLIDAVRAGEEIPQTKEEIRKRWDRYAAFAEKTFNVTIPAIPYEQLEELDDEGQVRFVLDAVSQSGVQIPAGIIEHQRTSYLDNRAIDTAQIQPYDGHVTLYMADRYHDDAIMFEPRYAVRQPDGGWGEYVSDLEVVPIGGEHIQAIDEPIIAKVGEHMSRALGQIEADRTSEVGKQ
UniProt Q8IDJ8, 1-583: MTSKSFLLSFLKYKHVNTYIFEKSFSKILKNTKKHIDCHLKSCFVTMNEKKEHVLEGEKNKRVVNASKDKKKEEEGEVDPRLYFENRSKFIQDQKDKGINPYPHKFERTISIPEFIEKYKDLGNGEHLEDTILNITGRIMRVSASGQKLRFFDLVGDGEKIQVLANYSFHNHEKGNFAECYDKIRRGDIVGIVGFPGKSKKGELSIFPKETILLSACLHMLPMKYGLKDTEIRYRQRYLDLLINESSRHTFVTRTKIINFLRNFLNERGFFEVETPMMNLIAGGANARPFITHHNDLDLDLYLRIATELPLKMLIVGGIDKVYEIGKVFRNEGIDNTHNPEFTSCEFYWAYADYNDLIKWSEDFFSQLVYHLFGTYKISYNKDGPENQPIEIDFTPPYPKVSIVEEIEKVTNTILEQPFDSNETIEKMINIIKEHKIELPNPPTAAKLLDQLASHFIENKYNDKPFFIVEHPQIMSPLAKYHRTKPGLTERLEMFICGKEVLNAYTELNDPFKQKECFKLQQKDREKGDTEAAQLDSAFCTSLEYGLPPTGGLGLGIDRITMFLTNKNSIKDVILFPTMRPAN

From ChEMBL document CHEMBL3988442, “University of Dundee, Small-Polar-MMV Screening Library” (2021).

ClpP1P2: 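ClpP1P2, Mycobacterium tuberculosis (UniProt P9WPC5 and UniProt P9WPC3). Protease assay of ClpP1P2, read by the AMC dye that it sets free. Tested at 50 µM. Direction is inferred from only a few compounds that gave an IC50; most scored high, so higher reads as stronger inhibition. Most other retested compounds had strongly negative values. Of about 69,000 compounds tested this way, about 10 (0.015%) reached 50% or more in at least one test.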
Leishmania in macrophages: 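Cell assay of Leishmania donovani living inside macrophages; the read-out is not stated. Tested at 30 µM. The record gives no direction; compounds that gave an IC50 in retests scored well above the rest, so higher reads as stronger inhibition. Size under these conditions: about 69,000 compounds, about 1,000 of them at 50% or above in at least one test.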
Pks13 thioesterase: 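Enzyme assay of the thioesterase domain of polyketide synthase 13; the read-out is not stated. Target: Polyketide synthase Pks13, Mycobacterium tuberculosis (UniProt I6X8D2). Tested at 30 µM. Higher reads as stronger inhibition (inferred from which compounds were picked for retests). About 67,000 compounds were tested under these conditions; 0.46% (about 300) showed 50% or more at least once.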
PfKRS1: 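Enzyme assay of the cytosolic lysyl-tRNA synthetase in 384-well plates, read by luminescence. Target: Lysine-tRNA ligase, Plasmodium falciparum 3D7 (UniProt Q8IDJ8). Tested at 30 µM. Direction is inferred from only a few compounds that gave an IC50; most scored high, so higher reads as stronger inhibition. Size under these conditions: about 69,000 compounds, about 49 of them at 50% or above in at least one test.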
Toxoplasma: 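Assay of Toxoplasma gondii numbers, read through their beta-galactosidase reporter with a colour substrate. Compounds at 10 µM. The record gives no direction; the compounds picked for IC50 retests had high values, so higher reads as fewer parasites. Size under these conditions: about 67,000 compounds, about 260 of them at 50% or above in at least one test.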

Results are given as percent effect. The record does not define 0% and 100%; most values in the screen are far below 50% and negative numbers occur (in some assays of this library far below -100). The compounds are a random part of those screened. Two or more numbers in one place are separate tests of the same structure; such repeats can differ widely. A dash means the value is not listed here; it may have been measured.

SMILES | ClpP1P2 | Leishmania in macrophages | Pks13 thioesterase | PfKRS1 | Toxoplasma
O=C(c1ccccn1)N1CCCC2(CCN(c3ccsc3)C2=O)C1 (stereo not given) | -1.204% | - | 16.45% | -8.922% | -
Cc1ccc(Oc2ncccc2CNC2Cc3ccccc3C2)cn1 | -3.812% | 6.182% | -40.18% | 4.661% | -0.05797%
CN(Cc1cc[nH]n1)C(=O)C1CC(=O)N(Cc2ccncc2)C1 (stereo not given) | 6.863% | -24.97% | -18.04% | 5.328% | 9.333%
CN1C(=O)CC(c2cnn(C)c2)C12CCN(C(=O)c1ccco1)CC2 (stereo not given) | -1.841% | 23.7% | -3.363% | 4.656% | -8.294%
Cc1ccc(OCCN(C)S(=O)(=O)N2CCOCC2)cc1 | 0.2797% | 9.053% | -9.562% | 6.895% | 3.686%
Cc1nccnc1CN1CCC2(CCCN(C3CCOCC3)C2=O)C1 (stereo not given) | -9.916% | 30.86% | -20.89% | 1.406% | 4.228%
c1nc2n(n1)CC(NCc1nc(-c3ccsc3)no1)CC2 (stereo not given) | 5.701% | 1.707% | -5.683% | 2.516% | 1.831%
CC(C)CNc1nnc(SC(C(=O)NCc2cccnc2)C(C)C)s1 (stereo not given) | 3.337% | 3.593% | -7.812% | 3.187% | 17.5%
C/N=C1/c2cc3cc(OC)ccc3n2CCN1C | -1.841% | -16.2% | 5.31% | 0.4584% | -0.202%
Cc1cccn2c(=O)cc(CN3CCCCC3Cn3cncn3)nc12 (stereo not given) | -5.762% | 23.46% | -2.858% | -1.189% | 1.329%
Cc1cc(C)nc(C2CCCN2C(=O)c2coc(C)n2)n1 (stereo not given) | 0.8528% | 2.617% | 1.122% | -3.138% | -
CCN1CCc2[nH]cnc2C12CCN(c1ncc(C(=O)O)cc1Cl)CC2 | 9.629% | -3.087% | -28.48% | -2.264% | 9.762%
N#Cc1ccc(OCCNc2cccc(C(=O)N3CCOCC3)c2)cc1 | 3.977% | 14.71% | 10.06% | 4.968% | 18.78%
COCCN1CC[C@H]2CN(Cc3ccc(C)s3)C[C@@H]2C1=O | -2.267% | - | -15% | 2.483% | -
[H][C@@]12CCN(Cc3cc(C)on3)C[C@@]1([H])O[C@@H](C(=O)N(C)C)C2 | - | 22.88% | - | - | -12.13%
COc1cccc(CN2CCCCC2c2n[nH]cc2-c2cc(C)no2)c1 (stereo not given) | -25.23% | - | -18.53% | 2.039% | -
CC(C)c1noc([C@@H]2C[C@H](NS(=O)(=O)Cc3ccccc3)CN2C)n1 | -8.537% | 19.12% | -35.01% | -1.362% | 3.545%
Cn1ccc(CN2CCC3(CC2)CC(Nc2cnccn2)CO3)n1.O=C(O)C(F)(F)F (stereo not given) | - | 10.04% | - | - | 4.202%
CN1CCN(C2CCN(CC(=O)NCC(F)(F)F)CC2)C1=O | -2.22% | 20.1% | -28.39% | 12.29% | -
Cc1noc2ncc(S(=O)(=O)Nc3cc(C(C)(C)C)n[nH]3)cc12 | 6.888% | 15.28% | -33.47% | 3.109% | 2.684%
Fc1ccccc1CN(CCCn1ccnc1)CC1CCOC1.O=C(O)CC(O)(CC(=O)O)C(=O)O (stereo not given) | - | 8.112% | - | - | -2.013%
Cn1ccnc1CN1CCCC(CO)(CCc2ccccc2)C1 (stereo not given) | -12.16% | 1.455% | -33.32% | 3.704% | 0.5217%
Cc1cccc(C(=O)N2CCCSCC2CN2CCCC2)c1 (stereo not given) | -11.45% | -2.702% | -11.82% | -0.7121% | 10.27%
O=C(O)C(F)(F)F.O=C(O)C(F)(F)F.c1csc(CN2CCC3(CCCN3CC3CC3)CC2)n1 | - | 9.666% & 19.82% | - | - | 0.7559%
Cc1cc(C)n(C2CCCN(C(=O)c3cccc4[nH]ncc34)C2)n1 (stereo not given) | 1.887% | 4.742% | -14.82% | 10.63% | 17.73%
CNC(=O)CSC(C)c1ccc(Br)cc1 (stereo not given) | -7.383% | 9.688% | - | 9.054% | 3.662%
COc1ccc2nc(CCNC(=O)c3cc(CC(C)C)no3)[nH]c2c1 | -3.061% | 7.267% | -9.884% | 5.394% | -17.49%
O=C(Cc1ccc(F)cc1)NCC1CCN(Cc2ccsc2)CC1 | 5.06% | 13.77% | -0.6593% | 5.245% | 8.649%
O=C(c1ccccc1)N1CCC2(CCCN2c2ncccn2)CC1 | -5.015% | - | -9.39% | 5.083% | -
CN1C(=O)C2(CCN(S(=O)(=O)C3CC3)CC2)c2ccccc21 | -7.52% | 9.106% | 2.2% | 4.358% | -3.074%
O=C1NC[C@@]2(C(=O)O)CN(Cc3cccc(C(F)(F)F)c3)C[C@@H]12 | 1.531% | - | -17.78% | 0.8708% | -
O=C(O)C(F)(F)F.O=C(O)C(F)(F)F.[H][C@@]12COC[C@]1([H])[C@@H](OCc1csc(C)n1)CN2c1ncc(CC)cn1 | - | 0.3642% | - | - | -3.182%
O=C(O)C(F)(F)F.O=C(O)C(F)(F)F.[H][C@]12CCN(c3ncc(F)cn3)[C@@]1([H])CCC(COCc1cccnc1)O2 (stereo not given in full) | - | -6.102% | - | - | 1.372%
OCc1csc(N2CCCN(Cc3ccc(F)cc3)CC2)n1 | 3.539% | 19.51% | - | 6.885% | 0%
CN(Cc1cc(C[C@@H]2C[C@H](N)C2(C)C)no1)c1ccccc1 | -2.944% | 3.245% | -15.29% | 2.556% | 1.622%
O=C(O)C(F)(F)F.[H][C@@]12CCCO[C@]1([H])[C@H](N(C)C)CN2C(=O)Cc1ccccc1 | - | 14.63% | - | - | 3.612%
CCS(=O)(=O)c1ncc(CN(C)CCc2ccccn2)n1CCOC | -5.419% | 23.73% | 8.612% | 5.552% | 4.298%
Cc1ccccc1CS(=O)(=O)CC(=O)N(C)Cc1cccc(F)c1 | 3.775% | -2.026% | 4.979% | -3.229% | 13.48%
NCc1n[nH]c(-c2ccc(F)cc2)n1 | 20.97% | -6.399% | -31.29% | 0.7281% | 2.879%

For reference, 2 entries once more:

| SMILES | ClpP1P2 | Leishmania in macrophages | Pks13 thioesterase | PfKRS1 | Toxoplasma |
|---|---|---|---|---|---|
| `O=C(c1ccccn1)N1CCCC2(CCN(c3ccsc3)C2=O)C1` (stereo not given) | -1.204% | - | 16.45% | -8.922% | - |
| `Cc1ccccc1CS(=O)(=O)CC(=O)N(C)Cc1cccc(F)c1` | 3.775% | -2.026% | 4.979% | -3.229% | 13.48% |